Test results taken from article PMC4749557.
Changes are numbered by the printed parent chain. Names and notes keep the numbering of the source. These are yes or no findings as the source states them, for the method shown. For some assays here: In cells and extracts the contact can be indirect. Some entries that bind do so weakly or less than the wild type. For some assays here: Where a sequence is shown, tags or fusion partners need not be part of it. Blank lines part the entries; values can stand above or below the binder they belong to.

Key:
[1] = biological target: T1, FLAG–HA tagged Prdm14 (FH-Prdm14), stably expressed in mESCs (mouse) (UniProt E9Q3T6); assay: co-IP; reciprocal Mtgr1 and Prdm14 co-immunoprecipitations from FH-Prdm14 mESC nuclear extracts
T1 sequence: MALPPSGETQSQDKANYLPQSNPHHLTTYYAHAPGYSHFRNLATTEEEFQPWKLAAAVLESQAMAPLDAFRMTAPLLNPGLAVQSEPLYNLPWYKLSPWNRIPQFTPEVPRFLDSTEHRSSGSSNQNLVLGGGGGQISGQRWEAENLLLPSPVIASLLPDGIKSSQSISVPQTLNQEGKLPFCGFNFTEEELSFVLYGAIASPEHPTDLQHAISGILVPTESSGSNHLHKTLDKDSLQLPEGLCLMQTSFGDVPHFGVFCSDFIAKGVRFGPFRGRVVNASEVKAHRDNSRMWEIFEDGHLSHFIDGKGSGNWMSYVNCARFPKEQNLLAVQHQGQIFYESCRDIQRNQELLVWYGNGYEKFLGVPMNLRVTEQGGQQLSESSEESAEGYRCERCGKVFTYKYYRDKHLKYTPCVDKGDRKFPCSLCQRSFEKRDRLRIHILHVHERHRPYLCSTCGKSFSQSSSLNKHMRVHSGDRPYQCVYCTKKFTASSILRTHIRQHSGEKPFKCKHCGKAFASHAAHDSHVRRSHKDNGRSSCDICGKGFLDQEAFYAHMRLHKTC

[2] = biological target: T1, FLAG–HA tagged Prdm14 (FH-Prdm14), stably expressed in mESCs (mouse); assay: pull-down; proteins co-precipitated with Prdm14 that was captured by monobody on M280 streptavidin dynabeads from FH-Prdm14 or wt mESC extracts; Western blot
[3] = biological target: T2, endogenous Prdm14 of wt mESCs (mouse (endogenous in mESCs)) (UniProt E9Q3T6); assay: as above
T2 sequence: T1 sequence

[4] = biological target: T3, full-length FH-Prdm14 E294K expressed in HEK293 cells (mouse) (UniProt E9Q3T6); assay: co-IP; HEK293 cells transfected with V5-Mtgr1 and FH-Prdm14 constructs; immunoblot with α-HA and α-V5
T3 sequence: T1 sequence with E294K

[5] = biological target: T4, full-length FH-Prdm14 expressed in HEK293 cells (mouse) (UniProt E9Q3T6); assay: as above
T4 sequence: T1 sequence

[6] = biological target: T5, recombinant Mtgr1 NHR1 domain (residues 98–206) (mouse) (UniProt O70374); assay: bead-based binding assay; biotinylated Mtgr1 (NHR1) immobilised on streptavidin M280 beads, biotinylated Prdm14 in solution, detected with SAV-Dylight650 by flow cytometer; 50 mM Tris–HCl, 150 mM NaCl, pH 8, 1 mg/ml BSA, 1 mM EDTA, 0.1 mM DTT; 1:1 model; both purified
T5 sequence (chain, biotin (biotin-acceptor tag)): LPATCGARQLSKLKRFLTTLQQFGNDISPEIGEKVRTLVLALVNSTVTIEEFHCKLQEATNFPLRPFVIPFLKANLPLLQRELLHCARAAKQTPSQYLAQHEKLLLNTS

[7] = biological target: T6, recombinant Mtgr1 NHR1 domain (residues 98–206) K109E (mouse) (UniProt O70374); assay: as above
T6 sequence (chain, biotin (biotin-acceptor tag)): T5 sequence (chain, biotin (biotin-acceptor tag)) with K12E

[8] = biological target: T7, recombinant Mtgr1 NHR1 domain (residues 98–206) R105D (mouse) (UniProt O70374); assay: as above
T7 sequence (chain, biotin (biotin-acceptor tag)): T5 sequence (chain, biotin (biotin-acceptor tag)) with R8D

B1: Mtgr1 (myeloid translocation gene related 1), endogenous in mESCs (protein, UniProt O70374 1-594)
chain: MVGVPGAAAFQLGCEKRVPAMPGSPVEVKIQSRSSPPIMPPLPPINPGGPRPVSFTPTALSNGINHSPPTLNGAPSPPQRFSNGPASSTSSALTNQQLPATCGARQLSKLKRFLTTLQQFGNDISPEIGEKVRTLVLALVNSTVTIEEFHCKLQEATNFPLRPFVIPFLKANLPLLQRELLHCARAAKQTPSQYLAQHEHLLLNTSIASPADSSELLMEVHGNGKRPSPERRDENNFERDTVPPEPPAKRVCTISPAPRHSPALTVPLMNPGGQFHPTPPPLQHYTLEDIATSHLYREPNKMLEHREVRERHHNLSLNGGYQDELVDHRLTEREWADEWKHLDHALNCIMEMVEKTRRSMAVLRRCQESDREELNYWKRRFNENTELRKTGTELVSRQHSPGSTDSLSNDSQREFTSRPATGYVPVEFWKKTEEAVNKVKIQAMSEVQKAVAEAEQKAFEVIATERARMEQTIADVKRQAAEDAFLVINEQEESTENCWNCGRKASETCSGCNIARYCGSFCQHKDWERHHRLCGQSLHGHSPHSQSRPLLPGGRGSARSADCSVPSPALDKTSATTSRSSTPASVTAIDANGL
binding [1]: binds | binding [2]: binds | binding [3]: binds

B2: full-length V5-tagged Mtgr1 expressed in HEK293 cells (protein, UniProt O70374 1-594)
chain: B1 chain
binding [4]: no binding | binding [5]: binds

B3: full-length V5-Mtgr1 K109E expressed in HEK293 cells (protein, UniProt O70374 1-594)
chain: B1 chain with K109E
binding [4]: binds | binding [5]: no binding

Now from value to binder:

binding [6]: no binding
B4: recombinant Prdm14 (residues 184–373) E294K (domain or fragment, UniProt E9Q3T6 184-373)
chain: GFNFTEEELSFVLYGAIASPEHPTDLQHAISGILVPTESSGSNHLHKTLDKDSLQLPEGLCLMQTSFGDVPHFGVFCSDFIAKGVRFGPFRGRVVNASEVKAHRDNSRMWKIFEDGHLSHFIDGKGSGNWMSYVNCARFPKEQNLLAVQHQGQIFYESCRDIQRNQELLVWYGNGYEKFLGVPMNLRVTE
modifications: biotin (biotin-acceptor tag)

binding [7]: no binding | binding [8]: no binding
B5: recombinant Prdm14 pre-SET+SET domains (residues 184–373) (domain or fragment, UniProt E9Q3T6 184-373)
chain: B4 chain with K111E
modifications: biotin (biotin-acceptor tag)

binding [6]: binds weakly
B6: recombinant Prdm14 SET domain alone (residues 232–373) (domain or fragment, UniProt E9Q3T6 232-373)
chain: LDKDSLQLPEGLCLMQTSFGDVPHFGVFCSDFIAKGVRFGPFRGRVVNASEVKAHRDNSRMWEIFEDGHLSHFIDGKGSGNWMSYVNCARFPKEQNLLAVQHQGQIFYESCRDIQRNQELLVWYGNGYEKFLGVPMNLRVTE
modifications: biotin
